# Experiment: general procedure: Boc solid-phase peptide synthesis; MBHA resin; HBTU/DIEA
# Details: whole synthesis, scale 0.14 mmol
substance,measurement,setting,value
[β-Ala^28 ]hPACAP(1-38)NH2,final HPLC purity,analytical HPLC,>99%
same,isolated mass,,286 mg
